Earlier results as cited in patent US20250134997A1, “COMBINATION TREATMENT OF AN ANTI-CD20/ANTI-CD3 BISPECIFIC ANTIBODY AND CHEMOTHERAPY IN CTDNA HIGH RISK PATIENTS” (priority 2023, published 2025).
At least one compound was matched to its structure with a doubt left.

Tested on: glofitamab-induced cytokine levels
Settings: mice pretreated with dexamethasone, relative to methylprednisolone

Structure (SMILES): C[C@@H]1C[C@H]2[C@@H]3CCC4=CC(=O)C=C[C@]4(C)[C@@]3(F)[C@@H](O)C[C@]2(C)[C@@]1(O)C(=O)CO [dexamethasone]
- glofitamab-induced cytokine levels: reduced
